± gives the standard deviation of the averaged measurements. The list shows a part of the results.
The compounds below were run on Madurella mycetomatis MM55 (assay: metabolic activity (growth) relative to DMSO growth control; higher = more fungal growth). Details: 10 µM.

SMILES	metabolic activity [%]
CCn1cc(-c2ccnc3[nH]c(-c4cccc(CN(C)C)c4)cc23)c(-c2ccc(NC(=O)N(C)C)cc2)n1	111 ± 8.8
Fc1ccccc1-c1cc(NCc2cccnc2)n2ncc(Br)c2n1	26.7 ± 12
CN1C(=O)c2ccccc2N(C)c2nc(Nc3cnn(C4CCNCC4)c3)ncc21	74.7 ± 57
CC(C)C(=O)N[C@@H]1CCN(C(=O)Nc2nc3c(s2)-c2nc(-c4ccccc4Cl)ncc2CC3)C1	101 ± 19
Nc1ncnn2c(CN3CCOCC3)cc(-c3cc(F)c(CO)c(F)c3)c12	96.3 ± 17
COc1cc(C2CCNCC2)ccc1Nc1nc(Cc2ccccc2F)n2cnnc2c1C(N)=O.Cl	105 ± 20
Cl.c1ccc(Cc2nc3ccc(Nc4ncnc5ccccc45)cc3[nH]2)cc1	109 ± 6.5
O=C(Nc1cccnc1)c1cc(-c2ccnc(F)c2)ccc1OCc1ccccc1	122 ± 56
O=c1[nH]c2cc(Nc3ccc(F)cc3F)ccc2n1CC1CCCCC1	73.4 ± 18
Cc1ccc(NC(=O)c2cccc(C3(C#N)CCOCC3)c2)cc1C(=O)Nc1ccc2ncsc2c1	86.76 ± 0.37
CC(C)(C)S(=O)(=O)c1ccc2nccc(Nc3n[nH]c4ccc(F)cc34)c2c1	107 ± 3.3
Cl.O=C(Nc1ccc(Oc2ccc3[nH]c(NC(=O)c4ccccc4)nc3c2)cc1)Nc1cc(C(F)(F)F)ccc1F	110 ± 27
CN1CCN(C(=O)c2cccc(NC(=O)Nc3ccc(N(C)c4ccnc(Nc5ccc(CS(C)(=O)=O)cc5)n4)cc3)c2)CC1.Cl	120 ± 7.8
O=C(Nc1n[nH]c2nc(-c3ccc(O)cc3)c(Br)cc12)C1CC1	82 ± 11
NS(=O)(=O)c1ccc(N/N=C2\C(=O)Nc3ccc(-c4cnco4)cc32)cc1	87.2 ± 3
CCCS(=O)(=O)Nc1ccc(F)c(C(=O)c2c[nH]c3ncc(Cl)cc23)c1F	78.8 ± 26
Cc1cccc(CC(=O)Nc2ccc(-c3csc4ccnc(N)c34)cc2)c1	94 ± 12
CCCNC(=O)c1ccc(Nc2nc(NCC(F)(F)F)c3occc3n2)cc1	111 ± 6.6
COc1cc(/C=N/Nc2ncnc3[nH]ncc23)ccc1O	81 ± 7.2
CC(=O)O.Nc1ncc2ccn(-c3ccc4[nH]ncc4c3)c2n1	94.71 ± 0.17
CN(C)C(=O)/C(C#N)=C/c1ccc(-c2nc3cnc4[nH]ccc4c3n2C2CCCCC2)o1	109 ± 8.6
Cc1c(Cn2ccn3c(=O)nc(N4CCOCC4)cc23)cccc1C(F)(F)F	108 ± 15

Not a retest: entries from further up.
SMILES	metabolic activity [%]
COc1cc(/C=N/Nc2ncnc3[nH]ncc23)ccc1O	81 ± 7.2
CC(=O)O.Nc1ncc2ccn(-c3ccc4[nH]ncc4c3)c2n1	94.71 ± 0.17
